From article PMC9858708, “Genetic and Molecular Interactions between H^ΔCT, a Novel Allele of the Notch Antagonist Hairless, and the Histone Chaperone Asf1 in Drosophila melanogaster” (Genes, 2023) come the findings set out here.

Test in all cases: two-hybrid; H constructs as bait in pEG202, Asf1 or Su(H) as prey in pJG4-5; lacZ reporter from pSH18-34, blue coloration of yeast colonies; overnight incubation for Su(H)-H, 48 h for Asf1-H
Assay [1] has as its target Hairless NTCT^ΔNT, two-hybrid bait (pEG NTCT^ΔNT) (Drosophila melanogaster).
Assay [2] addresses Hairless NTCT domain, two-hybrid bait (pEG NTCT) (Drosophila melanogaster).
Assay [3] deals with Hairless CT domain, two-hybrid bait (pEG CT) (Drosophila melanogaster).
The target of assay [4] is Hairless NTCT^ΔCT, two-hybrid bait (pEG NTCT^ΔCT) (Drosophila melanogaster).

No constants are given. Whether binding was seen depends on the method and setting. For some of these results: Binding can be weak; no strength is given.

B1: Asf1, full-length, two-hybrid prey (pJG Asf1) (protein, UniProt Q9V464 1-218)
chain: MAKVHITNVVVLDNPSSFFNPFQFELTFECIEELKEDLEWKMIYVGSAESEEHDQVLDTIYVGPVPEGRHIFVFQADPPDVSKIPEPDAVGVTIVLLTCSYRGQEFVRVGYYVNNDYADPEMRENPPTKPLFEKLTRNILASKPRVTRFKINWDYGHINGNGNGVENGHQDEMATDGPSTSEAASAVIHPEDDNSLAMPMENGIKALNENSNSLAMEC
In the case of B1, the binding result in assay [1] is “binds”; in assay [2], “binds weakly”; in assay [3], “binds weakly”; in assay [4], “no binding”.
